{"source": "patent US7538241B2", "about": "“Hsp90 family protein inhibitors” (Kyowa Hakko Kogyo Co., Ltd., priority 2003, dated 2009)", "note": "Some entries share one result that the patent states for a list of compounds."}
{"target": "T1, Human N-terminal recombinant Hsp90 protein (region of amino acids 9 to 236) (Homo sapiens, UniProt P07900)", "T1 construct": "region of amino acids 9 to 236; made in house", "experiment": "Hsp90 protein binding assay (competition with biotinylated Radicicol)", "conditions": "at concentrations of at most 10 μmol/L"}
{"molecule": "CCc1c(O)cc(O)c(-c2n[nH]c3cc(OC)ccc23)c1CCOCC(O)CO", "note": "(stereo not shown) [Compound 330, 5-[2-(2,3-Dihydroxypropoxy)ethyl]-6-ethyl-4-(6-methoxy-1H-indazol-3-yl)benzene-1,3-diol]", "inhibition of the binding of biotinylated Radicicol to the Hsp90 protein": "at least 30%"}
{"molecule": "CCc1c(O)cc(O)c(-c2cccc(F)c2)c1CC1O[C@H](CO)[C@@H](CO)O1", "note": "[Compound 296, 5-{[(4R,5R)-4,5-bis(hydroxymethyl)-1,3-dioxolan-2-yl]methyl}-6-ethyl-4-(3-fluorophenyl)benzene-1,3-diol]", "inhibition of the binding of biotinylated Radicicol to the Hsp90 protein": "at least 30%"}
{"molecule": "COCCc1c(C(C)=O)c(O)cc(O)c1-c1cccc(-c2ccccc2)c1", "note": "[Compound 120, 1-[2,4-Dihydroxy-6-(2-methoxyethyl)-5-(3-phenylphenyl)phenyl]ethanone]", "inhibition of the binding of biotinylated Radicicol to the Hsp90 protein": "at least 30%"}
{"molecule": "CCc1c(O)cc(O)c(-c2ccccc2)c1CCc1ocnc1C(=O)NCC(O)CO", "note": "(stereo not shown) [Compound 226, N-(2,3-dihydroxypropyl)-5-[2-(2-ethyl-3,5-dihydroxy-6-phenylphenyl)ethyl]-1,3-oxazole-4-carboxamide]", "inhibition of the binding of biotinylated Radicicol to the Hsp90 protein": "at least 30%"}
{"molecule": "COCCN(C)C(=O)Cc1c(Br)c(O)cc(O)c1-c1ccccc1", "note": "[Compound 37, 2-(2-Bromo-3,5-dihydroxy-6-phenylphenyl)-N-(2-methoxyethyl)-N-methylacetamide]", "inhibition of the binding of biotinylated Radicicol to the Hsp90 protein": "at least 30%"}
{"molecule": "CCc1c(O)cc(O)c(-c2cccc(C(=O)N(C)C)c2)c1CC1O[C@@H](CO)[C@H](CO)O1", "note": "[Compound 290, 5-{[(4S,5S)-4,5-Bis(hydroxymethyl)-1,3-dioxolan-2-yl]methyl}-4-[3-(dimethylcarbamoyl)phenyl]-6-ethylbenzene-1,3-diol]", "inhibition of the binding of biotinylated Radicicol to the Hsp90 protein": "at least 30%"}
{"molecule": "CCc1c(O)cc(O)c(-c2ccccc2)c1CCC(CO)CO", "note": "[Compound 215, 6-Ethyl-5-[4-hydroxy-3-(hydroxymethyl)butyl]-4-phenylbenzene-1,3-diol]", "inhibition of the binding of biotinylated Radicicol to the Hsp90 protein": "at least 30%"}
{"molecule": "COCCOCCc1cc(OS(N)(=O)=O)cc(O)c1-c1ccccc1", "note": "[Compound 152, 3-(2-Methoxyethoxy)ethyl-2-phenyl-5-(sulfamoyloxy)phenol]", "inhibition of the binding of biotinylated Radicicol to the Hsp90 protein": "at least 30%"}
{"molecule": "CCOc1cccc(-c2c(O)cc(O)c(CC)c2CCOC)c1", "note": "[Compound 133, 4-(3-Ethoxyphenyl)-6-ethyl-5-(2-methoxyethyl)benzene-1,3-diol]", "inhibition of the binding of biotinylated Radicicol to the Hsp90 protein": "at least 30%"}
{"molecule": "CCc1c(O)cc(O)c(-c2ccccc2)c1Cc1nn(CCO)c(=O)o1", "note": "[Compound 318, 5-[(2-Ethyl-3,5-dihydroxy-6-phenylphenyl)methyl]-3-(2-hydroxyethyl)-3H-1,3,4-oxadiazol-2-one]", "inhibition of the binding of biotinylated Radicicol to the Hsp90 protein": "at least 30%"}
{"molecule": "COC(=O)Cc1cc(O)cc(O)c1-c1cccc(CCC(=O)O)c1", "note": "[Compound 67, 3-{3-[2,4-Dihydroxy-6-(methoxycarbonylmethyl)phenyl]phenyl}propanoic acid]", "inhibition of the binding of biotinylated Radicicol to the Hsp90 protein": "at least 30%"}
{"molecule": "CCc1c(O)cc(O)c(-c2cccc(OC)c2)c1CC1O[C@H](CO)[C@@H](CO)O1", "note": "[Compound 286, 5-{[(4R,5R)-4,5-bis(hydroxymethyl)-1,3-dioxolan-2-yl]methyl}-6-ethyl-4-(3-methoxyphenyl)benzene-1,3-diol]", "inhibition of the binding of biotinylated Radicicol to the Hsp90 protein": "at least 30%"}
{"molecule": "COCCc1c(-c2ccccc2)c(O)cc(O)c1C(C)C", "note": "[Compound 151, 6-Isopropyl-5-(2-methoxyethyl)-4-phenylbenzene-1,3-diol]", "inhibition of the binding of biotinylated Radicicol to the Hsp90 protein": "at least 30%"}
{"molecule": "CCc1c(O)cc(O)c(-c2ccccc2)c1CCOCC(O)CO", "note": "(stereo not shown) [Compound 147, 5-[2-(2,3-Dihydroxypropoxy)ethyl]-6-ethyl-4-phenylbenzene-1,3-diol]", "inhibition of the binding of biotinylated Radicicol to the Hsp90 protein": "at least 30%"}
{"molecule": "COCCCc1c(Br)c(O)cc(O)c1-c1ccccc1", "note": "[Compound 97, 6-Bromo-5-(3-methoxypropyl)-4-phenylbenzene-1,3-diol]", "inhibition of the binding of biotinylated Radicicol to the Hsp90 protein": "at least 30%"}
{"molecule": "COC(=O)Cc1c(Cc2ccccc2)c(O)cc(O)c1-c1ccccc1", "note": "[Compound 70, Methyl 2-benzyl-3,5-dihydroxy-6-phenylphenylacetate]", "inhibition of the binding of biotinylated Radicicol to the Hsp90 protein": "at least 30%"}
{"molecule": "CC(O)CCc1c(Br)c(O)cc(O)c1-c1ccccc1", "note": "(stereo not shown) [Compound 115, 5-(3-Hydroxybutyl)-6-bromo-4-phenylbenzene-1,3-diol]", "inhibition of the binding of biotinylated Radicicol to the Hsp90 protein": "at least 30%"}
{"molecule": "CCc1c(O)cc(O)c(-c2ccccc2)c1CCOCC(=O)NC", "note": "[Compound 156, 2-[2-(2-Ethyl-3,5-dihydroxy-6-phenylphenyl)ethoxy]-N-methylacetamide]", "inhibition of the binding of biotinylated Radicicol to the Hsp90 protein": "at least 30%"}
{"molecule": "CCc1c(O)cc(O)c(-c2ccccc2)c1CCCOCC(=O)NCCOC", "note": "[Compound 168, 2-[3-(2-Ethyl-3,5-dihydroxy-6-phenylphenyl)propoxy]-N-(2-methoxyethyl)acetamide]", "inhibition of the binding of biotinylated Radicicol to the Hsp90 protein": "at least 30%"}
{"molecule": "CCc1c(O)cc(O)c(-c2ccccc2)c1CCc1ocnc1C(=O)NC(CO)CO", "note": "[Compound 225, 5-[2-(2-ethyl-3,5-dihydroxy-6-phenylphenyl)ethyl]-N-[2-hydroxy-1-(hydroxymethyl)ethyl]-1,3-oxazole-4-carboxamide]", "inhibition of the binding of biotinylated Radicicol to the Hsp90 protein": "at least 30%"}
{"molecule": "CCCNC(=O)c1cccc(-c2c(O)cc(O)c(CC)c2CC2O[C@H](CO)[C@@H](CO)O2)c1", "note": "[Compound 306, 5-{[(4R,5R)-4,5-Bis(hydroxymethyl)-1,3-dioxolan-2-yl]methyl}-6-ethyl-4-[3-(propylcarbamoyl)phenyl]benzene-1,3-diol]", "inhibition of the binding of biotinylated Radicicol to the Hsp90 protein": "at least 30%"}
{"molecule": "COC(=O)Cc1cc(O)cc(O)c1-c1ccccc1", "note": "[Compound 1, Methyl 3,5-dihydroxy-2-phenylphenylacetate]", "inhibition of the binding of biotinylated Radicicol to the Hsp90 protein": "at least 30%"}
{"molecule": "COCCNCCc1c(Br)c(O)cc(O)c1-c1ccccc1", "note": "[Compound 100, 6-Bromo-5-{2-[N-(2-methoxyethyl)amino]ethyl}-4-phenylbenzene-1,3-diol]", "inhibition of the binding of biotinylated Radicicol to the Hsp90 protein": "at least 30%"}
{"molecule": "CCc1c(O)cc(O)c(-c2ccccc2)c1CCC(C(=O)OC)C(=O)OC", "note": "[Compound 213, Methyl 4-(2-ethyl-3,5-dihydroxy-6-phenylphenyl)-2-(methoxycarbonyl)butanoate]", "inhibition of the binding of biotinylated Radicicol to the Hsp90 protein": "at least 30%"}
{"molecule": "COCCc1c(CC(C)=O)c(O)cc(O)c1-c1ccccc1", "note": "[Compound 94, 1-[2,4-Dihydroxy-6-(2-methoxyethyl)-5-phenylphenyl]propanone]", "inhibition of the binding of biotinylated Radicicol to the Hsp90 protein": "at least 30%"}
{"molecule": "COCCc1c(Br)c(O)cc(O)c1-c1ccco1", "note": "[Compound 243, 6-Bromo-4-(furan-2-yl)-5-(2-methoxyethyl)benzene-1,3-diol]", "inhibition of the binding of biotinylated Radicicol to the Hsp90 protein": "at least 30%"}
{"molecule": "COCCc1c(C(C)=O)c(O)cc(O)c1-c1cccc(C)c1", "note": "[Compound 122, 1-[2,4-Dihydroxy-6-(2-methoxyethyl)-5-(3-methylphenyl)phenyl]ethanone]", "inhibition of the binding of biotinylated Radicicol to the Hsp90 protein": "at least 30%"}
{"molecule": "CCc1c(O)cc(O)c(-c2ccccc2)c1CCCC(CO)CO", "note": "[Compound 217, 6-Ethyl-5-[5-hydroxy-4-(hydroxymethyl)pentyl]-4-phenylbenzene-1,3-diol]", "inhibition of the binding of biotinylated Radicicol to the Hsp90 protein": "at least 30%"}
{"molecule": "CCc1c(O)cc(O)c(-c2cccc(C)c2)c1CC1O[C@@H](CO)[C@H](CO)O1", "note": "[Compound 229, 5-{[(4S,5S)-4,5-bis(hydroxymethyl)-1,3-dioxolan-2-yl]methyl}-6-ethyl-4-(3-methylphenyl)benzene-1,3-diol]", "inhibition of the binding of biotinylated Radicicol to the Hsp90 protein": "at least 30%"}
{"molecule": "CCc1c(O)cc(O)c(-c2cccc(OC)c2)c1CC(=O)N(C)CCOC", "note": "[Compound 150, 2-[2-Ethyl-3,5-dihydroxy-6-(3-methoxyphenyl)phenyl]-N-(2-methoxyethyl)-N-methylacetamide]", "inhibition of the binding of biotinylated Radicicol to the Hsp90 protein": "at least 30%"}
{"molecule": "CCc1c(O)cc(O)c(-c2ccccc2)c1CCOC1OC(CO)C(O)C(O)C1O", "note": "(stereo not shown) [Compound 183, 6-Ethyl-4-phenyl-5-{2-[3,4,5-trihydroxy-6-(hydroxymethyl)tetrahydropyran-2-yloxy]ethyl}benzene-1,3-diol]", "inhibition of the binding of biotinylated Radicicol to the Hsp90 protein": "at least 30%"}
{"molecule": "CCc1c(O)cc(O)c(-c2ccccc2)c1CC1OCC(CO)O1", "note": "(stereo not shown) [Compound 211, 6-Ethyl-5-[(4-hydroxymethyl-1,3-dioxolan-2-yl)methyl]-4-phenylbenzene-1,3-diol]", "inhibition of the binding of biotinylated Radicicol to the Hsp90 protein": "at least 30%"}
{"molecule": "COCCOCCc1c(C(C)=O)c(O)cc(O)c1-c1ccccc1", "note": "[Compound 136, 1-[2,4-Dihydroxy-6-[2-(2-methoxyethoxy)ethyl]-5-phenylphenyl)ethanone]", "inhibition of the binding of biotinylated Radicicol to the Hsp90 protein": "at least 30%"}
{"molecule": "CCc1c(O)cc(O)c(-c2ccccc2)c1Cc1nn(CCOC)c(=O)o1", "note": "[Compound 317, 5-[(2-Ethyl-3,5-dihydroxy-6-phenylphenyl)methyl]-3-(2-methoxyethyl)-3H-1,3,4-oxadiazol-2-one]", "inhibition of the binding of biotinylated Radicicol to the Hsp90 protein": "at least 30%"}
{"molecule": "CCc1c(O)cc(O)c(-c2ccccc2)c1CCc1ocnc1C(N)=O", "note": "[Compound 222, 5-[2-(2-Ethyl-3,5-dihydroxy-6-phenylphenyl)ethyl]-1,3-oxazole-4-carboxamide]", "inhibition of the binding of biotinylated Radicicol to the Hsp90 protein": "at least 30%"}
{"molecule": "COc1ccccc1N1CCN(C(=O)Cc2c(Br)c(O)cc(O)c2-c2ccccc2)CC1", "note": "[Compound 88, 2-(2-Bromo-3,5-dihydroxy-6-phenylphenyl)-1-[4-(2-methoxyphenyl)piperazin-1-yl]ethanone]", "inhibition of the binding of biotinylated Radicicol to the Hsp90 protein": "at least 30%"}
{"molecule": "CCc1c(O)cc(O)c(-c2cccc(C(=O)NCCOC)c2)c1CC1O[C@H](CO)[C@@H](CO)O1", "note": "[Compound 303, 5-{[(4R,5R)-4,5-Bis(hydroxymethyl)-1,3-dioxolan-2-yl]methyl}-6-ethyl-4-[3-(2-methoxyethyl)carbamoylphenyl]benzene-1,3-diol]", "inhibition of the binding of biotinylated Radicicol to the Hsp90 protein": "at least 30%"}
